Source: publication PMC3406007
These are yes or no findings as the source states them, for the method shown. A result given as binding can be weak or reduced; the word gives no strength.

Sequences of proteins named here, by UniProt entry; tags and fusion partners are left off. A change or cut given only in a name is not applied to a line headed by its entry.
UniProt Q9M2R1: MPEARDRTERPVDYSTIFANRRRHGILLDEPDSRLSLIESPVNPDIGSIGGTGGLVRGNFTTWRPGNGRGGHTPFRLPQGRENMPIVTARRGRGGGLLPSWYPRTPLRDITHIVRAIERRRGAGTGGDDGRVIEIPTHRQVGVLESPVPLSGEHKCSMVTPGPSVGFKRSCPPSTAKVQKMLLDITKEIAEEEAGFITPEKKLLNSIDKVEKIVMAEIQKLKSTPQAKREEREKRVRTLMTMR

How the values were obtained:
[1] = target: OSD1ΔMR, yeast two-hybrid bait (Arabidopsis thaliana) (UniProt Q9M2R1); test: two-hybrid; OSD1 mutant alleles as bait (pDEST32) against CCS52A1 as prey (pDEST22), cotransformation into yeast strain PJ69-4a
[2] = target: OSD1ΔD′, yeast two-hybrid bait (Arabidopsis thaliana) (UniProt Q9M2R1); test: as above

B1: CCS52A1, yeast two-hybrid prey (protein, UniProt Q8L3Z8 1-483)
chain: MEEEDPTASNVITNSNSSSMRNLSPAMNTPVVSLESRINRLINANQSQSPSPSSLSRSIYSDRFIPSRSGSNFALFDLSPSPSKDGKEDGAGSYATLLRAAMFGPETPEKRDITGFSSSRNIFRFKTETHRSLNSFSPFGVDDDSPGVSHSGPVKAPRKVPRSPYKVLDAPALQDDFYLNLVDWSAQNVLAVGLGNCVYLWNACSSKVTKLCDLGAEDSVCSVGWALRGTHLAVGTSTGKVQIWDASRCKRTRTMEGHRLRVGALAWGSSVLSSGSRDKSILQRDIRCQEDHVSKLAGHKSEVCGLKWSYDNRELASGGNDNRLFVWNQHSTQPVLKYSEHTAAVKAIAWSPHVHGLLASGGGTADRCIRFWNTTTNTHLSSIDTCSQVCNLAWSKNVNELVSTHGYSQNQIIVWKYPTMSKIATLTGHTYRVLYLAVSPDGQTIVTGAGDETLRFWNVFPSPKSQNTDSEIGSSFFGRTTIR
Question: What does the source list for B1?
Answer: binding [1]: binds; binding [2]: binds
